PubChem BioAssay AID1259254, NCATS | 2017

- Assay: 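Gene knock-downs that lead to re-replication, shown by excess G2 DNA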 (primary screen)
- System: human HCT116 colorectal cancer cells
- Reagents: single siRNA against human genes
- Time to read-out: 3 days
- Measured: 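Nuclei stained with Hoechst and imaged; cell-cycle phase assigned by DNA content; G2 share scaled per plate, non-targeting siRNA 0%, GMNN siRNA 100%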
- Direction: G2 robust z-score and G2 cells, % of GMNN control: higher = more G2 cells, more excess DNA replication
- Rule for the call: 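Active siRNAs have a G2 robust z of 5 or more median absolute deviations over the median, which in these data means about 38% or higher of GMNN control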
The whole screen tested about 59,000 reagents; this is a random part of them. About 1,550 of them (2.6%) count as active. 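G2 share is only a proxy for re-replication; each gene was hit by three separate siRNAs, and active genes were retested.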 Entries without a mark were called inactive. Further read-outs or replicates are left out here. Not stated in the record: the amount of reagent.

SF3B5 [SID160735029] scored G2 robust z-score 1.31; G2 cells, % of GMNN control 12.2.
Against SF3B5 [SID160751110], the entry reads G2 robust z-score -0.525; G2 cells, % of GMNN control -0.726.
SF3B5 [SID160751111] gave G2 robust z-score 0.31; G2 cells, % of GMNN control 5.15.
CEP97 [SID160748967] showed G2 robust z-score -1.03; G2 cells, % of GMNN control -4.3.
Silencing of CEP97 [SID160748968] came out at: G2 robust z-score -0.592; G2 cells, % of GMNN control -1.2.
CEP97 [SID160748969] gave G2 robust z-score -0.592; G2 cells, % of GMNN control -1.19.
FIP1L1 [SID160750875] gave G2 robust z-score -0.523; G2 cells, % of GMNN control -0.713.
Depletion of FIP1L1 [SID160750876] gave: G2 robust z-score -1.16; G2 cells, % of GMNN control -5.21.
Against FIP1L1 [SID160750877], the values are G2 robust z-score -0.737; G2 cells, % of GMNN control -2.22.
With knock-down of C17orf58 [SID160763116], the record shows G2 robust z-score 0.171; G2 cells, % of GMNN control 4.17.
For C17orf58 [SID160763117], the entry reads G2 robust z-score -0.0323; G2 cells, % of GMNN control 2.74.
After knock-down of C17orf58 [SID160763118], the record shows G2 robust z-score 0.639; G2 cells, % of GMNN control 7.46.

An excerpt from above, showing only “G2 cells, % of GMNN control”:
SF3B5 [SID160751110]	-0.726
SF3B5 [SID160751111]	5.15

Further results follow:
Against TPTE2 [SID160754503] the deposit lists G2 robust z-score 1.7; G2 cells, % of GMNN control 15.
TPTE2 [SID160754504] showed G2 robust z-score 0.263; G2 cells, % of GMNN control 4.82.
TPTE2 [SID160754505] gave G2 robust z-score 0.387; G2 cells, % of GMNN control 5.69.
Knock-down of DYNLT2 [SID160717865] resulted in: G2 robust z-score -0.606; G2 cells, % of GMNN control -1.29.
With knock-down of DYNLT2 [SID160717866], the record shows G2 robust z-score -0.627; G2 cells, % of GMNN control -1.45.
DYNLT2 [SID160717867] gave G2 robust z-score -0.221; G2 cells, % of GMNN control 1.41.
Depletion of GDI1 [SID160770334] resulted in: G2 robust z-score 5.31 (active); G2 cells, % of GMNN control 40.3.
Against GDI1 [SID160770341], the values are G2 robust z-score 9.89 (active); G2 cells, % of GMNN control 72.5.
After knock-down of GDI1 [SID160770352], the record shows G2 robust z-score -0.153; G2 cells, % of GMNN control 1.89.
Silencing of PLCB4 [SID160714443] gave: G2 robust z-score -1.18; G2 cells, % of GMNN control -5.33.
For PLCB4 [SID160714444], the values are G2 robust z-score -0.246; G2 cells, % of GMNN control 1.24.
Silencing of PLCB4 [SID160714445] came out at: G2 robust z-score 2.06; G2 cells, % of GMNN control 17.4.
